We go through 13 molecules from PMC6984391, “Anion carriers as potential treatments for cystic fibrosis: transport in cystic fibrosis cells, and additivity to channel-targeting drugs” (Chemical Science, 2019).

Marks after values point to notes of the source that are not given here.

A short description of one series: Deliverability of anionophores to vesicles (external addition vs preincorporation). To be noted: I for external addition divided by I for preincorporated anionophore; new compound or new data. The format is biochemical.
`COCCOCCOC(=O)[C@]12CC[C@@H](NC(=O)Nc3cc(C(F)(F)F)cc(C(F)(F)F)c3)C[C@@H]1C[C@@H](NC(=O)Nc1cc(C(F)(F)F)cc(C(F)(F)F)c1)CC2` [Compound 10]: the “Deliverability index (D)” value came out at 0.95. On the same count and under the same terms, to `CCCCCCCCOC(=O)[C@]12CC[C@@H](NC(=S)Nc3ccc([N+](=O)[O-])cc3)C[C@@H]1C[C@@H](NC(=S)Nc1ccc([N+](=O)[O-])cc1)CC2` [Compound 13] belongs 0.24; to `FC(F)(F)c1cc(NC(=S)NCCN(CCNC(=S)Nc2cc(C(F)(F)F)cc(C(F)(F)F)c2)CCNC(=S)Nc2cc(C(F)(F)F)cc(C(F)(F)F)c2)cc(C(F)(F)F)c1` [Compound 19], 2.98 ^b.

For the molecule `CCc1c(CNC(=S)Nc2ccc(C(F)(F)F)cc2)c(CC)c(CNC(=S)Nc2ccc(C(F)(F)F)cc2)c(CC)c1CNC(=S)Nc1ccc(C(F)(F)F)cc1` [Compound 5], the “Deliverability index (D)” value is given as 0.24 ^b. On the same count and under the same terms, to `CCOC(=O)[C@]12CC[C@@H](NC(=S)Nc3ccc(C(F)(F)F)cc3)C[C@@H]1C[C@@H](NC(=S)Nc1ccc(C(F)(F)F)cc1)CC2` [Compound 14] belongs 2.02 ^b. Same read-out and setting: in the case of `CCc1c(CNC(=S)Nc2cc(C(F)(F)F)cc(C(F)(F)F)c2)c(CC)c(CNC(=S)Nc2cc(C(F)(F)F)cc(C(F)(F)F)c2)c(CC)c1CNC(=S)Nc1cc(C(F)(F)F)cc(C(F)(F)F)c1` [Compound 6] it was 0.11 ^b.

As for `CCc1c(CNC(=O)Nc2cc(C(F)(F)F)cc(C(F)(F)F)c2)c(CC)c(CNC(=O)Nc2cc(C(F)(F)F)cc(C(F)(F)F)c2)c(CC)c1CNC(=O)Nc1cc(C(F)(F)F)cc(C(F)(F)F)c1` [Compound 7], the “Deliverability index (D)” value is 0.18 ^b. Same read-out and setting: to `CCOC(=O)[C@]12CC[C@@H](NC(=S)Nc3ccc([N+](=O)[O-])cc3)C[C@@H]1C[C@@H](NC(=S)Nc1ccc([N+](=O)[O-])cc1)CC2` [Compound 12] belongs 1.12; to `COCCOCCOC(=O)[C@]12CC[C@@H](NC(=O)Nc3ccc(C(F)(F)F)cc3)C[C@@H]1C[C@@H](NC(=O)Nc1ccc(C(F)(F)F)cc1)CC2` [Compound 9], 1.55.

Experiment in a further series: not given
On the set-up: method as in ref [20], [24], [29] (Reference column). As to conditions: I for external addition divided by I for preincorporated anionophore; ref [20], [24], [29]; cited from earlier work.
As to `O=C(Nc1cc(C(F)(F)F)cc(C(F)(F)F)c1)Nc1cccc2cc3cccc(NC(=O)Nc4cc(C(F)(F)F)cc(C(F)(F)F)c4)c3cc12` [Compound 22], the “Deliverability index (D)” value is given as 0.45. Take `O=C(Nc1ccc([N+](=O)[O-])cc1)Nc1cccc2cc3cccc(NC(=O)Nc4ccc([N+](=O)[O-])cc4)c3cc12` [Compound 20]: the “Deliverability index (D)” value is recorded as 0.82. For the molecule `O=C(Nc1ccc(C(F)(F)F)cc1)Nc1cccc2cc3cccc(NC(=O)Nc4ccc(C(F)(F)F)cc4)c3cc12` [Compound 21], the “Deliverability index (D)” value is 0.62. For the molecule `CCCCCCCCOC(=O)[C@]12CC[C@@H](NC(=S)Nc3cc(C(F)(F)F)cc(C(F)(F)F)c3)C[C@@H]1C[C@@H](NC(=S)Nc1cc(C(F)(F)F)cc(C(F)(F)F)c1)CC2` [Compound 16], the “Deliverability index (D)” value is recorded as 0.03.
